The values that follow come from patent US20240277847A1, “BENCH-STABLE TRIAZENE COMPOSITIONS FOR PROTEIN MODIFICATION” (ARIZONA BOARD OF REGENTS ON BEHALF OF THE UNIVERSITY OF …, priority 2021, published 2024).

SMILES strings stand for the structures. Some compounds share one wording; it may come from a single statement.

The first data set in a line: Diazonium release in pH 4 citrate buffer, trapped with resorcinol as azo-adduct. The class given is physicochemical. Particulars: 1 equivalent resorcinol, 0.1 M pH 4 citrate buffer, 3 hours.
With `O=[N+]([O-])c1ccc(N=NN2CCCCC2)cc1` [1a], the yield of azo-adduct result is on record as “failed to produce any of the corresponding azo-adducts”. For `COc1cccc(N=NN2CCCCC2)c1` [m-OCH3], the yield of azo-adduct result is “diminished yields”. On to `FC(F)(F)c1ccc(N=NN2CCCCC2)cc1` [1c], for which the yield of azo-adduct result is listed as “failed to produce any of the corresponding azo-adducts”. With `CNC(=O)c1ccc(N=NN2CCCCC2)cc1` [p-CONHCH3], the yield of azo-adduct entry is on record as “failed to produce any of the corresponding azo-adducts”.

Take `Brc1ccc(N=NN2CCCCC2)cc1` [p-Br]: the yield of azo-adduct result is on record as “diminished yields”. In the case of `COc1ccc(N=NN2CCCCC2)cc1` [1i], the yield of azo-adduct turned out to be 56%.

Regarding `Cc1ccc(N=NN2CCCCC2)cc1` [1h], the yield of azo-adduct was found to be 31%. With `N#Cc1ccc(N=NN2CCCCC2)cc1` [1b], the yield of azo-adduct result is listed as “failed to produce any of the corresponding azo-adducts”. Regarding `c1ccc(N=NN2CCCCC2)cc1` [1g], the yield of azo-adduct is reported as 20%.

The nature of the next data set: Effect of ring structure on diazonium release, 1 hr 370 nm UV at pH 7 with resorcinol. The class given is physicochemical. Particulars: 1 equivalent resorcinol, 50% MeOH / 0.1 M PBS pH 7, 370 nm UV irradiated 1 hr.
As for `Cc1ccc(N=NN2CCCCC2)cc1` [1h], the “relative yield of azo-adduct” value amounted to 30%.

For the molecule `c1ccc(N=NN2CCCC2)cc1` [3a], the “relative yield of azo-adduct” value amounted to 32%. For `c1ccc(N=NN2CCOCC2)cc1` [5a], the “relative yield of azo-adduct” value came out at 8%.
